The text below walks through data of US20160009755A1, “CYRRHETINIC ALKYL ESTERS AND PROTECTED DERIVATIVES THEREOF” (priority 2013, published 2016).

This assay has as its system secreted IL-8 in normal human epidermal keratinocytes (NHEK). In words: IL-8 secretion in PMA-stimulated NHEK (anti-inflammatory test). To be noted: 10^−9M. The assay is classed as cell-based. The method, then: It is believed that the […] compounds of the present invention are useful for reducing inflammation in human skin. In an exemplary test, NHEK were cultured in a medium for 24 hours. The cells were then treated or not (control) with either […] methyl ester or the reference compound (staurosporine) and pre-incubated for 24 hours. Then the culture medium was removed and replaced with another culture medium containing or not (control) the […] methyl ester or the reference compound and containing an inflammatory inducer (PMA) and the cells were incubated for 24 hours. A control without inducer was performed in parallel. After incubation, the culture supernatants were collected in order to measure the quantity of secreted IL-8.

Each structure is given as a SMILES string.

For `CN[C@@H]1C[C@H]2O[C@@](C)([C@@H]1OC)n1c3ccccc3c3c4c(c5c6ccccc6n2c5c31)C(=O)NC4` [Staurosporine, staurosporine], at 0.001 µM the inhibition was 83%.
